In article PMC6775114 one finds binding data, which are given here for 3 substances.

Sequences of proteins named here, by UniProt entry; tags and fusion partners are left off. A change or cut given only in a name is not applied to a line headed by its entry. A line that says so, or that is headed by a name, gives the form on record, which may keep a tag or linker. Residues count along the entry.
GST-nesprin-1-alpha2 wild type (aa1-842, SR1-5, KASH-less bait protein) (Q8NF91, form named): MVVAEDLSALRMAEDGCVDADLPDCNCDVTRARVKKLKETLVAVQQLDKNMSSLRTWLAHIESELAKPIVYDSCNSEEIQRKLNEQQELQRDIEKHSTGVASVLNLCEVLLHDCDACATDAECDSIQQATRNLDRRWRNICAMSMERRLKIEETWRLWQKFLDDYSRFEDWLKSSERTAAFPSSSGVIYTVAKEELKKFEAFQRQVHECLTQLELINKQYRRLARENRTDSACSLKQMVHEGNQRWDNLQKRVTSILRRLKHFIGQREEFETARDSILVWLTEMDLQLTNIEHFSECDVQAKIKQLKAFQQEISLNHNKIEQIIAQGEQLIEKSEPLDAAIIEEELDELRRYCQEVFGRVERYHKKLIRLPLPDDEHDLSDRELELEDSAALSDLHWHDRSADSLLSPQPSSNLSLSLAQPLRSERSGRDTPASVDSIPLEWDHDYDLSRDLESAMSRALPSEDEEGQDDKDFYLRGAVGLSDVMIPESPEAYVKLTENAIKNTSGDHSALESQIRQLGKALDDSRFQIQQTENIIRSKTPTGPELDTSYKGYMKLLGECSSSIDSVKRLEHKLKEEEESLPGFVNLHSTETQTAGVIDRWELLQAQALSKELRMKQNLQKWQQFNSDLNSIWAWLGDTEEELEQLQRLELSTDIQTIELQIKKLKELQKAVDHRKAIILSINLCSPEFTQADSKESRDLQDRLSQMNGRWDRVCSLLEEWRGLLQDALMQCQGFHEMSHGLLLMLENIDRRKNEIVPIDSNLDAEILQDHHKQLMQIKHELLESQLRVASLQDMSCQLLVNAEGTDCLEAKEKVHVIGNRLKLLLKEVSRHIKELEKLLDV
UniProt P02545, residues 1-646: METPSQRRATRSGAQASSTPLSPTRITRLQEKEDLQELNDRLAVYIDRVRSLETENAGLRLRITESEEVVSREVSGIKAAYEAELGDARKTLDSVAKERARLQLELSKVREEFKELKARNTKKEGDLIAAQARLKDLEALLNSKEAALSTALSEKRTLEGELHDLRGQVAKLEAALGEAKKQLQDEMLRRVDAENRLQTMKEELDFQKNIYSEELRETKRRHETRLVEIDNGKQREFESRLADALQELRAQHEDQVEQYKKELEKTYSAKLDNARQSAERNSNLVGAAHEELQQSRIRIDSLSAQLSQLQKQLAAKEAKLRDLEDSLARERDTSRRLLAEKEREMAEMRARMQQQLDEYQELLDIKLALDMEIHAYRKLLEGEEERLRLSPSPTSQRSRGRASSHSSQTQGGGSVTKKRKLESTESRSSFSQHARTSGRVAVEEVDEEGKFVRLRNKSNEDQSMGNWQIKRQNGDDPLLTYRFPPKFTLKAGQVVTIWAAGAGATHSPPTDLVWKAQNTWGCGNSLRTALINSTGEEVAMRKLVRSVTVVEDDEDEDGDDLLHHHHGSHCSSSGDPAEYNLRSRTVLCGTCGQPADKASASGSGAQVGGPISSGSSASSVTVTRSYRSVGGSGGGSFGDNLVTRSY
UniProt Q07866: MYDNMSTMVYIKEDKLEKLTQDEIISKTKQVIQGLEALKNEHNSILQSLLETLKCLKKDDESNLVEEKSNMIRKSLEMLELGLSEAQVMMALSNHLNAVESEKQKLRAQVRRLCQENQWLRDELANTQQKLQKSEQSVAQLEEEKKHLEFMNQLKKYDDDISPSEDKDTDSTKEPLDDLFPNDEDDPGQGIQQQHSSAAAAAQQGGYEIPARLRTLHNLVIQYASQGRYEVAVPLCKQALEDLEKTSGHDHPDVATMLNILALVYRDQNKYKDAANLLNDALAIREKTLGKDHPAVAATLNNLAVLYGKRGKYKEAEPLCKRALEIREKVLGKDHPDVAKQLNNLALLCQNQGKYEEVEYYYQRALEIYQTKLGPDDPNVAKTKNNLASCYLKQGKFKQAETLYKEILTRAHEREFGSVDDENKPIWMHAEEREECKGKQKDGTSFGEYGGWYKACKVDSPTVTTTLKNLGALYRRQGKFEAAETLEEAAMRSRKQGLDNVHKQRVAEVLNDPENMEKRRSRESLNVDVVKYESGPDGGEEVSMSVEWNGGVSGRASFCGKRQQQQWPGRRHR
UniProt P33176: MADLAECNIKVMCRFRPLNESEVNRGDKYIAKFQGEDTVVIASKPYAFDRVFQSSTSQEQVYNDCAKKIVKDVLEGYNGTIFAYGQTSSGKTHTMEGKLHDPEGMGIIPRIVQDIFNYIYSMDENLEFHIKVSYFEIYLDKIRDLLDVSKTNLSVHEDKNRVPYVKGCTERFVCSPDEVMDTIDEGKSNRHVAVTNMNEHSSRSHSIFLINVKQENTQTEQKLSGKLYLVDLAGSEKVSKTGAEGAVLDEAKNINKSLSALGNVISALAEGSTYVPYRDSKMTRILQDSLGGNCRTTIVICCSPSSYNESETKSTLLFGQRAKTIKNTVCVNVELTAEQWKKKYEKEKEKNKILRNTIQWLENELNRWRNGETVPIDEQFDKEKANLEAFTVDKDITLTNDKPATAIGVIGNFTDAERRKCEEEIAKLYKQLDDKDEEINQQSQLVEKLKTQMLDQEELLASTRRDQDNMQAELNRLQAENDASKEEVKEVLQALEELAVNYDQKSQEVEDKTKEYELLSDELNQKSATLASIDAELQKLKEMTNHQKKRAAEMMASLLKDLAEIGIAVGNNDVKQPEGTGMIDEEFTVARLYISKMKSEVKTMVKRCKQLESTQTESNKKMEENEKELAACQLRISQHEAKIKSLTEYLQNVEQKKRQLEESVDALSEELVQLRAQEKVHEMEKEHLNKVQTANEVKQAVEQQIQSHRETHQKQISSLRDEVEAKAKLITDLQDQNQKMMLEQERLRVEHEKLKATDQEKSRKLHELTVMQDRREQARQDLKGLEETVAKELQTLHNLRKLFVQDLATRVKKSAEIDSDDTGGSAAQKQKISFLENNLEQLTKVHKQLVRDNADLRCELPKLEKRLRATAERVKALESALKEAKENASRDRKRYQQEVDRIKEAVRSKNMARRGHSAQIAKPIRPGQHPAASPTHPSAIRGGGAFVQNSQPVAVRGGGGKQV

These are yes or no findings as the source states them, for the method shown. Binding seen in cells or lysates may run through a third protein. A yes stands for co-enrichment or nearness to the bait. Other partners may have been found. No binding means not detected with the bait.

For assay [1], the target named is GST-nesprin-1-alpha2 lacking the 18-amino-acid STAR domain (STARdel, aa1-842 bait protein) (human) (UniProt Q8NF91). In words: affinity purification with mass spectrometry; GST-tagged bait on glutathione magnetic agarose beads, incubated with RIPA extract of cultured human myotubes; beads washed, trypsin digest, nanoLC-MS/MS; beads alone as control; only the target purified.

Assay [2] addresses GST-nesprin-1-alpha2 wild type (aa1-842, SR1-5, KASH-less bait protein) (human) (UniProt Q8NF91). The description is as above.

Regarding lamin A/C (from UniProt P02545 1-646), the binding result in assay [1] and in assay [2] was “no binding” in each case.
As to “human kinesin light-chain (kinesin light chain 1, 72 kDa) (from UniProt Q07866 1-573)”, the binding result in assay [1] is listed as “no binding”; in assay [2], “binds”.
The corresponding values for “kinesin heavy-chain (Kinesin 1, heavy chain; KIF5B) (from UniProt P33176 1-963)” are “no binding” and “binds”.
